# Experimental data: PubChem BioAssay AID1671190 (National Center for Advancing Translational Sciences (NCATS), 2021)
# Chains of the proteins cited; added tags and fusions are not shown.
# UniProt P18054, whole entry, looked up: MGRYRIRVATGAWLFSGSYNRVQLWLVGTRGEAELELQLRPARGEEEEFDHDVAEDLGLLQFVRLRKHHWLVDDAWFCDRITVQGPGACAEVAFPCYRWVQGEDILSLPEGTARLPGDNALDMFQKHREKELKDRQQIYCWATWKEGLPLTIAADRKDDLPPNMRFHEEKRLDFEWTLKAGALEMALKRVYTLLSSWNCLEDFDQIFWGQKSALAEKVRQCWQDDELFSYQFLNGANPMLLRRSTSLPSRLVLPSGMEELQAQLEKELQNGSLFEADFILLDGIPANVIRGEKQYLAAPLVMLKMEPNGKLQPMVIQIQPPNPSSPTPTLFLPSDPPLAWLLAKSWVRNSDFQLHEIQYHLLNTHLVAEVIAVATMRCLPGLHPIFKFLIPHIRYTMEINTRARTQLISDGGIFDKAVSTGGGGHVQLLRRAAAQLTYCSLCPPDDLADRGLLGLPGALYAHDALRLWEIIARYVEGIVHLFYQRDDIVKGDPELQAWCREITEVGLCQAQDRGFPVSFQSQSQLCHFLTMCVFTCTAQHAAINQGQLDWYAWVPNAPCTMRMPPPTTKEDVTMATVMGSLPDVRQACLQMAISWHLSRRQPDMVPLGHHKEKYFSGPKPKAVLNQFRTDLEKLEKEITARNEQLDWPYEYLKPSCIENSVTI
# About 6,100 (1.1%) of roughly 580,000 compounds were called active. The inconclusive results got no clear call from the source; some entries with a clear call stand among them for comparison. Calls follow the shape of the dose curve; as a rule, active = well fitted inhibition curve with a large enough effect; inconclusive = small, poorly fitted or top-dose-only effect, or another doubt; inactive = no such curve, though single readings can be large or run the other way. Potencies beside an inconclusive call are fits to weak or partial responses and may not hold up.
# Target: Polyunsaturated fatty acid lipoxygenase ALOX12 (Homo sapiens) (UniProt P18054)
# Test: Primary qHTS assay for inhibitors of human arachidonate 12S-lipoxygenase (ALOX12): Round 2
# Conditions: purified 12hLO, xylenol orange hydroperoxide absorbance; activity change, negative = inhibition: at 108 µM (top of the series) unless noted
# Outline: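 Purified human 12hLO (150 nM final) in 25 mM Hepes, 0.01% Triton X-100, pH 7.0 was preincubated 15 min at room temperature with compound. Then 40 uM arachidonic acid was added, 30 min. Hydroperoxide was read by Fe-XO absorbance ratio 573/405 nm.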
# % is scaled to controls: 0 for no effect and ±100 for the full control effect; potency is read from the fitted curve at half-maximal effect.
Compound,Potency,"activity change, negative = inhibition"
COc1ccc(NC(=S)Nc2cc(C)ccn2)c(OC)c1,"inconclusive: 25.1 µM [inhibitor, partial curve]",–
CCOC(=O)c1c(NC(=O)CN2CCCCC2)sc2c1CCN(C(=O)OCC)C2,–,inactive: 18%
COC(=O)c1cnc(Oc2ccc(NC(=O)NC(=O)c3c(F)cccc3Cl)cc2)cc1C(F)(F)F,"inconclusive: 112 µM [inhibitor, single point]",–
CCc1cccc(C)c1Nc1c(-c2ccc(SC)cc2)nc2sccn12,"inconclusive: 22.4 µM [inhibitor, full curve, poor fit]",–
CCC(=O)Nc1nc(C)c(-c2csc(Nc3cccc(O)c3)n2)s1,"inconclusive: 31.6 µM [inhibitor, single point]",–
COCCn1c(=N)c(S(=O)(=O)c2ccc(F)cc2)cc2c(=O)n3ccccc3nc21,–,inactive: -6.18%
Cc1ccc(C)c(NC(=O)/C(C#N)=C/c2ccccc2OC(F)F)c1,–,inactive: 14%
COCC(C)Nc1nccc(C2(c3ccccc3Cl)CCNCC2)n1 (configuration not stated),–,inactive: 26.5%
CCOC(=O)c1c(-c2ccc(C)o2)csc1NC(=O)CN1CCC(C(N)=O)CC1,–,inactive: -0.5%
COC(=O)CSc1nc2sc3c(c2c(=O)n1-c1ccccc1)CCN(C)C3,"inconclusive: 50.1 µM [inhibitor, partial curve, poor fit]",–
COc1cc(C(CC(=O)c2ccccc2)C(C#N)C#N)cc(OC)c1OC (configuration not stated),"inconclusive: 79.4 µM [inhibitor, single point]",–
CN1CCN(C(C(=O)O)c2cn(Cc3ccccc3)c3cc(C(=O)O)ccc23)CC1 (configuration not stated),"inconclusive: 39.8 µM [inhibitor, single point]",–
O=C(c1ccc(N2CCOCC2)c([N+](=O)[O-])c1)N1CCN(S(=O)(=O)c2cccs2)CC1,"inconclusive: 141 µM [inhibitor, partial curve, poor fit]",–
O=C(CCCCCCC(=O)Nc1ccc([C@H]2O[C@@H](CSc3nc(-c4ccccc4)c(-c4ccccc4)o3)C[C@@H](c3ccc(CO)cc3)O2)cc1)NO,"inconclusive: 24.3 µM [inhibitor, partial curve, poor fit]",–
O=C(NC(Nc1ncc(S(=O)(=O)c2ccc([N+](=O)[O-])cc2)s1)(C(F)(F)F)C(F)(F)F)c1ccc(Cl)cc1,"inconclusive: 14.1 µM [inhibitor, partial curve, poor fit]",–
O=S(=O)(NC1CCCCC1)c1ccc(F)c2ccccc12,"inconclusive: 89.1 µM [inhibitor, single point]",–
Cc1ccc(-n2nc3c(N4CCC(C(=O)NC5CCC(C)CC5)CC4)nnc(C)c3c2C)cc1 (configuration not stated),"inconclusive: 50.1 µM [inhibitor, partial curve, poor fit]",–
Cc1ccc(-c2cnc(NC(=O)c3cccc(Br)c3)s2)c(C)c1,"inconclusive: 5.62 µM [inhibitor, partial curve, poor fit]",–
CCOc1ccc(N(CC(=O)Nc2cc(OC)cc(OC)c2)S(=O)(=O)c2c(C)[nH]c(=O)[nH]c2=O)cc1,"inconclusive: 56.2 µM [inhibitor, partial curve, poor fit]",–
CCc1ccc2oc(-c3ccc(CN)cc3)nc2c1,–,inactive: -27.6%
CCCCN1CCCCC1(C)C(=O)NCc1cccs1 (configuration not stated),"inconclusive: 56.2 µM [inhibitor, partial curve, poor fit]",–

Compound,Potency,"activity change, negative = inhibition"
CC(=O)N1N=C(c2c(-c3ccccc3)c3cc(Cl)ccc3n(C)c2=O)CC1c1ccco1 (configuration not stated),"inconclusive: 50.1 µM [inhibitor, partial curve, poor fit]",–
O=C(C1=C(O)C(=O)N(CC2CCCO2)C1c1ccc(Cl)cc1)c1ccco1 (configuration not stated),"inconclusive: 14.1 µM [inhibitor, partial curve, poor fit]",–
CC1CCc2sc(C(=O)NN=C3CCCC3)cc2C1 (configuration not stated),"inconclusive: 44.7 µM [inhibitor, partial curve, poor fit]",–
COc1ccc(-c2coc3cc(OC(C)=O)c(OC)cc3c2=O)cc1,–,inactive: 2.24%
COc1ccc(Cl)cc1NC(=O)Cn1c(=O)oc2cc(S(=O)(=O)N3CCCCCC3)ccc21,"inconclusive: 112 µM [inhibitor, partial curve, poor fit]",–
CSc1nc(C(C)C)nc(C)c1C(=O)Nc1ccc(Cl)cc1,"inconclusive: 44.7 µM [inhibitor, partial curve, poor fit]",–
Cc1cccc(NC(=O)CSc2cn[nH]n2)c1,–,inactive: -6.93%
N#C/C(=C\c1c(N2CCOCC2)nc2ccccn2c1=O)C(=O)NC1CCS(=O)(=O)C1 (configuration not stated),"inconclusive: 126 µM [inhibitor, single point]",–
Cc1oc(-c2ccccc2Cl)nc1CSCC(=O)N1CCCC1,–,inactive: -17%
COP(=O)(OC)c1nc(C(c2ccccc2)c2ccccc2)oc1NCc1ccco1,"inconclusive: 70.8 µM [inhibitor, partial curve, poor fit]",–
CC1(C)Cc2cccc(OCc3ccc(C(N)=O)cc3)c2O1,"inconclusive: 50.1 µM [inhibitor, partial curve, poor fit]",–
COc1ccc(C(=O)C2CCCN(C(=O)c3cccnc3OC)C2)cc1F (configuration not stated),–,inactive: 15.4%
CCCCN1C(=O)C(=O)N(CC(=O)N2N=C3/C(=C/c4ccco4)CCCC3C2c2ccco2)C1=O (configuration not stated),–,inactive: 0%
COc1ccc(C)cc1NC(=O)CC(C)(C(=O)O)c1ccccc1 (configuration not stated),"inconclusive: 89.1 µM [inhibitor, single point]",–
Cc1ccc2nc(NC(=O)COC(=O)CSc3nc(C)cc(C)n3)sc2c1,"inconclusive: 44.7 µM [inhibitor, partial curve, poor fit]",–
O=C(Nc1ccc(C(=O)NCc2ccc(F)cc2)cc1)C1=CSCCO1,–,inactive: -9.36%
CCCc1ccc(-c2cc(C(=O)NCc3cnn(C)c3)c3ccccc3n2)cc1,–,inactive: -5.36%
COc1ccc(CNC(=O)C[C@@H]2C[C@H]3O[C@H](CNC4CCCC4)[C@@H](O)[C@H]3O2)cc1,–,inconclusive: -33.8% [inhibitor] [at 176 µM]
O=C(CN1C(=O)NC2(CCCc3ccccc32)C1=O)c1ccc(F)c(F)c1 (configuration not stated),"inconclusive: 63.1 µM [inhibitor, partial curve, poor fit]",–
Cc1ccc(-n2c(C)cc(C3=NNC(=NC4CC4)SC3)c2C)cc1C,"inconclusive: 79.4 µM [inhibitor, partial curve, poor fit]",–
CC(C)(C)C1CCC2(CC1)NC(=O)N(CC(=O)N1CCN(c3ccccc3F)CC1)C2=O (configuration not stated),"inconclusive: 50.1 µM [inhibitor, partial curve]",–

Compound,Potency,"activity change, negative = inhibition"
Cc1ccc(C(=O)c2cn(Cc3ccccc3F)c3cc4c(cc3c2=O)OCCO4)cc1,"inconclusive: 89.1 µM [inhibitor, partial curve, poor fit]",–
S=C(Nc1ccc2nccnc2c1)N1CCOCC1,"inconclusive: 5.62 µM [inhibitor, full curve]",–
CCNc1nnc(SCC(=O)NC2CCCCCC2)s1,"inconclusive: 44.7 µM [inhibitor, single point]",–
Oc1ccc(/C=N/NC(=S)NC2CC3CCC2C3)cc1 (configuration not stated),active: 17.8 µM,–
COc1cc(CNc2ccc3[nH]c(=O)[nH]c3c2)cc(Cl)c1OCC(=O)NC(C)(C)C,"inconclusive: 79.4 µM [inhibitor, single point]",–
COc1ccc(-n2c(COc3ccc(Cl)cc3Cl)n[nH]c2=S)cc1,"inconclusive: 50.1 µM [inhibitor, partial curve, poor fit]",–
O=C(c1cc(-c2ccccc2O)on1)N1CCc2ccccc2C1,"inconclusive: 3.16 µM [inhibitor, full curve, poor fit]",–
CN(C)CCNC(=O)c1ccc(Cn2c(SCc3ccc(F)cc3)nc3cccnc32)cc1,–,inactive: -18.5%
O=C1c2cccc([N+](=O)[O-])c2C(=O)N1C1CCCCC1,–,inactive: 7.34%
Cc1nc2ccn(Cc3cccs3)c(=O)c2cc1C(=O)NCc1ccc(Br)cc1,–,inconclusive: -52.8% [inhibitor]
O=C(c1cnc2sccn2c1=O)N1CCc2ccccc2C1,"inconclusive: 25.1 µM [inhibitor, partial curve, poor fit]",–
O=C(O)CCCOc1ccc2c(c1)CCC(=O)N2,"inconclusive: 112 µM [inhibitor, single point]",–
c1ccc(-n2ncc3c(NCc4ccco4)ncnc32)cc1,"inconclusive: 89.1 µM [inhibitor, single point]",–
C/C(=N\NC(=S)Nc1cccc(C)c1)c1cccc(N)c1,"inconclusive: 44.7 µM [inhibitor, partial curve, poor fit]",–
C#CCOCCOCCOCCNc1nc(N2CCN(C(=O)[C@H]([C@@H](C)CC)n3cc([C@@H](N)CO)nn3)CC2)nc(N2CCN(C(=O)[C@H](CCCCN)n3cc([C@@H](N)CO)nn3)CC2)n1,–,inactive: -8.36%
O=C(COc1ccc(Cl)cc1)N(Cc1ccco1)Cc1ccco1,"inconclusive: 20 µM [inhibitor, full curve, poor fit]",–
COc1ccc(/C=N/c2c(-c3ccc(OC)cc3)nc3n2CCS3)cc1,"inconclusive: 44.7 µM [inhibitor, partial curve, poor fit]",–
COc1ccc2c(c1)NC(c1ccc(N(C)C)cc1)c1cccn1-2 (configuration not stated),"inconclusive: 79.4 µM [inhibitor, partial curve, poor fit]",–
CSc1ccccc1C(=O)Nc1ccccc1-c1ccccc1,"inconclusive: 50.1 µM [inhibitor, partial curve, poor fit]",–
COc1ccc(-c2nc(NCCN(C)C3CCCCC3)c3ccccc3n2)cc1,"inconclusive: 70.8 µM [inhibitor, partial curve, poor fit]",–
